Experimental data: patent US5135955A, “Propanamine derivatives” (Eli Lilly and Company, priority 1989, dated 1992)
Structures can show the parent of a compound that is named as a salt. For at least one compound, name, drawing or mass did not settle the structure.

Test system: thromboplastin clotting time in human plasma
Experiment: prothrombin time test (thromboplastin clotting time in human plasma)
Type: biochemical
Settings: 37° C.
Procedure: Briefly, to 0.1 ml of each of human plasma, normal saline and thromboplastin was added 0.03 ml of the test compound of the present invention (2 mg/ml in 50 percent methanol). The clotting time was measured at 37° C. with a Fibrometer.
^a Expressed in seconds
^b Concentration of compound tested in micrograms per milliliter of […]

[1] = 180 micrograms per milliliter of plasma

| SMILES | plasma prothrombin time [1] [s] | plasma prothrombin time (11 micrograms per milliliter of plasma) [s] | plasma prothrombin time (22 micrograms per milliliter of plasma) [s] | plasma prothrombin time (45 micrograms per milliliter of plasma) [s] |
| --- | --- | --- | --- | --- |
| CCCCCCOc1ccc(CC(CN)c2cccnc2)cc1 (stereo not drawn) [Example 27, β-[[(4-Hexyloxy)phenyl]methyl]-3-pyridineethanamine dihydrochloride] | 100 |  |  |  |
| CCCCCCOc1ccc(CCC(CCCCCC)NCCNCC)cc1 (centres unmarked) [Example 44, N-Ethyl-N'-[1-[2-[4-(hexyloxy)phenyl]ethyl]heptyl]-1,2-ethanediamine dihydrochloride] | 300 | 22 | 25 | 33 |
